Survivor count and T/C data for 21 compounds are collected here from PubChem BioAssay AID248 (DTP/NCI, 2004).

This test deals with L1210 leukemia ip in BDF1 mice, survival T/C. Briefly: NCI In Vivo Anticancer Drug Screen. Data for tumor model L1210 Leukemia (intraperitoneal) in B6D2F1 (BDF1) mice. The conditions noted are these: T/C endpoint: mean survival time, higher T/C = longer survival.
Where [1] appears, read: dose: 400.0 mg/kg/injection, schedule: Q04DX003 (ip), vehicle: saline.
[2] abbreviates: dose: 200.0 mg/kg/injection, schedule: Q04DX003 (ip), vehicle: saline with Tween-80.
The mark [3] stands for this setting: dose: 200.0 mg/kg/injection, schedule: Q01DX001 (ip), vehicle: other.
The mark [4] stands for this setting: dose: 400.0 mg/kg/injection, schedule: Q01DX001 (ip), vehicle: other.

The list shows only some results of the screen, not a fair sample: it gathers tests that were run many times, whatever their T/C, doses with no T/C, and many T/C values between a quarter and a half above the control. Further doses and runs are listed elsewhere. T/C gives the treated animals as a percentage of the vehicle group. Some doses have a count of surviving animals in place of a T/C: the source files T/C as zero there, which appears to mark a toxic dose or a test without result, not a measured value. Some doses without a T/C left all or most animals alive at the check, yet need not have been tolerated: survival well below the control is almost never listed, so the zero probably covers shortened survival too. Counts of survivors are from the toxicity check (mostly the fifth day) where no day follows; animals may have died later. Schedule codes are those of the source, read here as Q, the interval in days (D) or hours (H), X, the number of doses. Some schedule codes hold Z or #, which are not explained here. Some molecules as drawn cover several salts, stereoisomers or complexes of the source; a dose is that of the sample tested. Some doses were run more than once; the values are given in rising order. Where survival is the endpoint, this PubChem deposit counts one and a half times the control or more as active, and values a quarter to a half above the control carry no call in these data; other NCI protocols may use other cut-offs. Brackets with × stand for listed records that agree.

As for `O=C(CBr)c1cccnc1`, the survivor count was 2 of 6 (dose: 25.0 mg/kg/injection, schedule: Q01DX009 (ip), vehicle: saline); 0 of 6 (dose: 100.0 mg/kg/injection, schedule: Q04DX003 (ip), vehicle: saline); 0 of 6 (dose: 200.0 mg/kg/injection, schedule: Q04DX003 (ip), vehicle: saline); 0 of 6 under setting [1].
Take `CCC(C)C1NC(=O)C(NC(=O)c2c3nc4c(C(=O)NC5C(=O)NC(C(C)CC)C(=O)N6CCCC6C(=O)N(C)CC(=O)N(C)C(C(C)C)C(=O)OC5C)cc(N)c(C)c4oc-3c(C)c(=O)c2N)C(C)OC(=O)C(C(C)C)N(C)C(=O)CN(C)C(=O)C2CCCN2C1=O` (centres undefined): the T/C runs as follows: (dose: 200.0 micrograms/kg/injection, schedule: Q01DX009 (ip), vehicle: saline + alcohol) 130 % of control; (dose: 400.0 micrograms/kg/injection, schedule: Q04DX003 (ip), vehicle: saline + alcohol) 126 % of control; (dose: 600.0 micrograms/kg/injection, schedule: Q04DX003 (ip), vehicle: saline + alcohol) 130 % of control; (dose: 800.0 micrograms/kg/injection, schedule: Q04DX003 (ip), vehicle: saline + alcohol) 138 % of control; (dose: 1200.0 micrograms/kg/injection, schedule: Q04DX003 (ip), vehicle: saline + alcohol) 133 % of control; (dose: 1600.0 micrograms/kg/injection, schedule: Q04DX003 (ip), vehicle: saline + alcohol) 135 % of control.
Take `Cc1nc(N)c(Cl)nc1C`: the survivor count (dose: 400.0 mg/kg/injection, schedule: Q01DX009 (ip), vehicle: saline with Tween-80) is 6 of 6.
Turning to `C(=Nc1ccccc1)c1ccccc1`, the survivor count (dose: 50.0 mg/kg/injection, schedule: Q01DX009 (ip), vehicle: carboxymethylcellulose (CMC)) is on record as 0 of 6; the survivor count (dose: 100.0 mg/kg/injection, schedule: Q01DX009 (ip), vehicle: carboxymethylcellulose (CMC)) is reported as 0 of 6; the survivor count (dose: 200.0 mg/kg/injection, schedule: Q01DX009 (ip), vehicle: carboxymethylcellulose (CMC)) is 0 of 6; the survivor count (dose: 400.0 mg/kg/injection, schedule: Q01DX009 (ip), vehicle: carboxymethylcellulose (CMC)) is recorded as 1 of 6; the survivor count (dose: 400.0 mg/kg/injection, schedule: Q01DX009 (ip), vehicle: saline) was 0 of 6; the survivor count under setting [1] was 6 of 6.
As for `NCCCCC(NC(=O)OCc1ccccc1)C(=O)CCl` (centres undefined), the survivor count is, setting by setting: (dose: 40.0 mg/kg/injection, schedule: Q04DX002 (ip), vehicle: saline) 1 of 3; (dose: 100.0 mg/kg/injection, schedule: Q04DX002 (ip), vehicle: saline) 0 of 3; (dose: 200.0 mg/kg/injection, schedule: Q04DX002 (ip), vehicle: saline) 0 of 3; (dose: 400.0 mg/kg/injection, schedule: Q04DX002 (ip), vehicle: saline) 0 of 3.
For the compound `CCC[P+](c1ccccc1)(c1ccccc1)c1ccccc1`, for the setting “dose: 12.5 mg/kg/injection, schedule: Q01DX009 (ip), vehicle: saline with Tween-80”, the T/C was 128 % of control (2×). Further, the survivor count is 0 of 6 (dose: 50.0 mg/kg/injection, schedule: Q04DX003 (ip), vehicle: saline); 0 of 6 and 2 of 6 (dose: 100.0 mg/kg/injection, schedule: Q01DX001 (ip), vehicle: carboxymethylcellulose (CMC)); 0 of 6 (dose: 200.0 mg/kg/injection, schedule: Q01DX001 (ip), vehicle: carboxymethylcellulose (CMC)); 0 of 6 (dose: 400.0 mg/kg/injection, schedule: Q01DX001 (ip), vehicle: carboxymethylcellulose (CMC)).
For `CC1(C)N=C(N)N=C(N)N1c1cccc(S(=O)(=O)F)c1`, the survivor count (dose: 100.0 mg/kg/injection, schedule: Q01DX009 (ip), vehicle: saline) is recorded as 0 of 6; the survivor count (dose: 400.0 mg/kg/injection, schedule: Q01DX001 (ip), vehicle: saline) was 0 of 6; the survivor count (dose: 500.0 mg/kg/injection, schedule: Q01DX009 (ip), vehicle: saline) is listed as 0 of 6.
`CCOC(=O)c1ccc[n+](CCCl)c1`: the survivor count (dose: 300.0 mg/kg/injection, schedule: Q01DX Z (ip), vehicle: saline) is recorded as 1 of 6.
Turning to `CCN(CC)CCCCNc1ccc(NCCCCN(CC)CC)c2c1C(=O)c1ccccc1C2=O`, the survivor count by setting is: (dose: 100.0 mg/kg/injection, schedule: Q04DX002 (ip), vehicle: alcohol) 3 of 3; (dose: 200.0 mg/kg/injection, schedule: Q04DX002 (ip), vehicle: alcohol) 3 of 3; (dose: 400.0 mg/kg/injection, schedule: Q04DX002 (ip), vehicle: alcohol) 2 of 3.
Turning to `S=c1nn[nH]n1C1CCCCC1`, under setting [2], the survivor count is 6 of 6.
Turning to `Cc1c(Cl)c(C)c(Cl)c(O)c1Cl` (tested in a mixture with another compound), the survivor count runs as follows: (dose: 100.0 mg/kg/injection, schedule: Q01DX009 (ip), vehicle: saline with Tween-80) 1 of 3; (dose: 400.0 mg/kg/injection, schedule: Q04DX002 (ip), vehicle: other) 0 of 3.
With `Cc1ncc(C#N)n1C(C)c1ccccc1` (centres undefined), under “dose: 400.0 mg/kg/injection, schedule: Q01DX001 (ip), vehicle: Klucel (hydroxypropylcellulose) (HPC)”, the survivor count is on record as 1 of 3.
`O=C(O)c1ccc([N+](=O)[O-])cc1P(=O)(O)O`: the survivor count is on record as 4 of 6 (dose: 150.0 mg/kg/injection, schedule: Q04DX003 (ip), vehicle: saline with Tween-80) and 2 of 6 (dose: 300.0 mg/kg/injection, schedule: Q04DX003 (ip), vehicle: saline with Tween-80).
As for `CCCCCCCCC/C(C)=N\N=C(N)N`, the survivor count (dose: 30.0 mg/kg/injection, schedule: Q01DX Z (ip), vehicle: methylcellulose (MC)) was 1 of 6; the survivor count (dose: 60.0 mg/kg/injection, schedule: Q01DX Z (ip), vehicle: methylcellulose (MC)) was 0 of 6; the survivor count (dose: 120.0 mg/kg/injection, schedule: Q01DX Z (ip), vehicle: methylcellulose (MC)) was 0 of 6; the survivor count (dose: 240.0 mg/kg/injection, schedule: Q01DX Z (oral), vehicle: methylcellulose (MC)) is recorded as 2 of 6; the survivor count (dose: 480.0 mg/kg/injection, schedule: Q01DX Z (oral), vehicle: methylcellulose (MC)) is recorded as 2 of 6.
For `COC(=O)c1cc(N2CC2)nc(Cl)n1`, the survivor count is, setting by setting: (dose: 100.0 mg/kg/injection, schedule: Q01DX Z (ip), vehicle: methylcellulose (MC)) 2 of 6; (dose: 200.0 mg/kg/injection, schedule: Q01DX Z (ip), vehicle: methylcellulose (MC)) 2 of 6.
Regarding `CN(C)C(=S)[S][Sb]([c]1ccccc1)[c]1ccccc1`, the survivor count by setting is: under setting [3], 1 of 4; under setting [4], 0 of 4.
Take `CC1(C)C(O)(C#N)C(C)(C)C1(O)C#N` (centres undefined): the survivor count runs as follows: (dose: 100.0 mg/kg/injection, schedule: Q04DX003 (ip), vehicle: saline with Tween-80) 0 of 6; under setting [2], 0 of 6; (dose: 400.0 mg/kg/injection, schedule: Q04DX003 (ip), vehicle: saline with Tween-80) 0 of 6.
With `COc1cc2c(cc1O)-c1cc3ccc(OC)c(OC)c3c[n+]1CC2`, for the setting “dose: 200.0 mg/kg/injection, schedule: Q04DX002 (ip), vehicle: Klucel (hydroxypropylcellulose) (HPC)”, the T/C is 128 % of control. Further, under “dose: 400.0 mg/kg/injection, schedule: Q04DX002 (ip), vehicle: Klucel (hydroxypropylcellulose) (HPC)”, the survivor count is 0 of 3.
As to `Cc1ccc(/C(=N\N=C(N)N)C2CC2)cc1`, the survivor count reads like this: (dose: 420.0 mg/kg/injection, schedule: Q01DX Z (ip), vehicle: methylcellulose (MC)) 0 of 6; (dose: 600.0 mg/kg/injection, schedule: Q01DX Z (ip), vehicle: methylcellulose (MC)) 0 of 6; (dose: 960.0 mg/kg/injection, schedule: Q01DX Z (oral), vehicle: methylcellulose (MC)) 3 of 6.
For `Cc1cc(N=Cc2cccc([N+](=O)[O-])c2O)c2ccccc2n1`, the survivor count under setting [3] is listed as 0 of 4 and the survivor count under setting [4] was 0 of 4.
Regarding `Nc1cc(Cl)[nH]c(=O)n1`, the survivor count (dose: 400.0 mg/kg/injection, schedule: Q01DX009 (ip), vehicle: gum acacia) is recorded as 6 of 6.
